Data taken from the supplement of paper PMC5407854, “Inhibitor of ppGalNAc-T3-mediated O-glycosylation blocks cancer cell invasiveness and lowers FGF23 levels” (eLife, 2017).
The other results are listed elsewhere or left out. Most values lie at the level of the controls, where differences are scatter.

The compounds below were run on ppGalNAc-T3 sensor (assay: T3 sensor activation Q score (MG/GFP ratio z-score vs DMSO controls) (SD units); higher = more sensor activation (inhibition of ppGalNAc-T3 glycosylation)). Settings: HEK293 sensor cells; 10 µM; 6 h.
Protocol: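 Cells were treated with compound at 10 uM for 6 h, then MG/GFP ratio was read by flow cytometry (10,000 cells per well, duplicate wells). Q = (R - R_neg)/SD_neg relative to DMSO vehicle controls; the signal rises when the glycosyltransferase is inhibited.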

| Compound | T3 sensor activation Q score |
| --- | --- |
| COc1ccc(CN2CCN(c3ccccc3)CC2)c(OC)c1C | -0.13 |
| CN1CCN(Cc2ccccc2[N+](=O)[O-])CC1 | 0.035 |
| Fc1ccc(CN2CCN(Cc3ccccc3)CC2)cc1F | 0.715 |
| CC(=O)c1ccc(N2CCN(Cc3cccc(Cl)c3)CC2)cc1 | -0.355 |
| CCOc1ccccc1N1CCN(Cc2cccc(C)c2)CC1 | -0.17 |
| COc1ccc(CN2CCN(c3ccc(F)cc3)CC2)cc1OC | -0.01 |
| c1ccc(CN2CCN(c3ccccc3)CC2)cc1 | 0.49 |
| CC(NC(=O)C(Cl)(Cl)Cl)c1ccccc1 (stereo not given) | -1.06 |
| CCOc1ccc(CN2CCN(c3ccccc3OC)CC2)cc1 | -1.01 |
| Cc1ccc(CN2CCN(c3ccccc3C)CC2)cc1 | 0.5 |
| CCOc1ccc(CN2CCN(c3ccc(F)cc3)CC2)cc1 | -0.18 |
| Cc1ccccc1N1CCN(Cc2cccc(Cl)c2)CC1 | 0.385 |
| Fc1ccc(N2CCN(Cc3ccc(F)cc3F)CC2)cc1 | -0.33 |
| CN1CCN(Cc2ccc([N+](=O)[O-])cc2)CC1 | 0.805 |
| O=c1c2ccccc2nc(/C=C\c2ccc(Cl)cc2)n1-c1ccccc1 | -0.115 |
| Nc1cc(N2CCNCC2)ccc1[N+](=O)[O-] | 0.67 |
| CCN1CCN(Cc2ccc(C)cc2)CC1 | -0.185 |
| COc1cc(CN2CCN(C)CC2)c([N+](=O)[O-])cc1OC | -1.05 |
| CCOc1cc(CN2CCN(c3ccccc3Cl)CC2)ccc1O | 0.115 |
| CCN1CCN(Cc2ccc(OC)c(C)c2C)CC1 | 0.01 |

2 of these compounds, reformatted.
Compound | T3 sensor activation Q score
Fc1ccc(CN2CCN(Cc3ccccc3)CC2)cc1F | 0.715
CCN1CCN(Cc2ccc(OC)c(C)c2C)CC1 | 0.01

Later entries:

| Compound | T3 sensor activation Q score |
| --- | --- |
| c1ccc2c(CCNC3C4CC5CC(C4)CC3C5)c[nH]c2c1 (stereo not given) | 1.35 |
| COc1ccc(N2C(=O)CC(=O)NC2=O)cc1 | -0.475 |
| CCN1CCN(Cc2cccc(Cl)c2)CC1 | -0.065 |
| COc1ccc(OC)c(CN2CCN(c3ccc(F)cc3)CC2)c1 | 0.55 |
| COc1ccccc1CN1CCN(C)CC1 | 0.06 |
| Cc1ccccc1N1C(=O)CC(=O)NC1=O | -0.42 |
| CN1CCN(Cc2ccc3c(c2)OCO3)CC1 | -0.15 |
| COc1ccc(N2CCN(Cc3ccc(Cl)cc3)CC2)cc1 | 0.035 |
| CCCCOc1ccc(CN2CCN(CC)CC2)cc1 | 0.59 |
| Cc1ccccc1N1CCN(Cc2ccc(Cl)cc2)CC1 | 0.515 |
| C=CCOc1ccccc1CN1CCN(c2ccccc2)CC1 | 0.615 |
| Brc1ccc(CN2CCN(Cc3ccc4c(c3)OCO4)CC2)cc1 | 0.39 |
| Brc1ccc(CN2CCN(c3ccccc3)CC2)cc1 | -0.135 |
| Cc1ccc(CN2CCN(c3ccc(Cl)cc3)CC2)cc1 | 0.34 |
| COc1ccccc1CN1CCN(c2ccc([N+](=O)[O-])cc2)CC1 | 0.025 |
| CN1CCN(Cc2cccc(Br)c2)CC1 | 0.475 |
| CCN1CCN(Cc2ccc(OC)c(OC)c2)CC1 | 0.395 |
| CN1CCN(Cc2cccc(Cl)c2Cl)CC1 | 0.15 |
| CCN1CCN(Cc2ccccc2C)CC1 | 0.02 |
| CN1CCC(O)(c2ccccc2)C(C(=O)c2ccccc2)C1 (stereo not given) | 0.9 |
